Results reported in paper PMC11378909, “Thr^4 phosphorylation on RNA Pol II occurs at early transcription regulating 3′-end processing” (Science Advances, 2024).
Results are given in words; binding and its absence hold for the method and conditions named.

Target: RPRD1B-CID (residues 2 to 133) (human) (UniProt Q9NQG5)
Experiment: SEC; gel filtration profile of purified RPRD1B-CID (fig. S4A); both purified

B1: RPRD1B-CID (residues 2 to 133) (domain or fragment, UniProt Q9NQG5 2-133)
chain: SSFSESALEKKLSELSNSQQSVQTLSLWLIHHRKHAGPIVSVWHRELRKAKSNRKLTFLYLANDVIQNSKRKGPEFTREFESVLVDAFSHVAREADEGCKKPLERLLNIWQERSVYGGEFIQQLKLSMEDSK
For B1, the binding was “no binding”.
